# Reference: patent US20090036365A1
# These are yes or no findings as the source states them, for the method shown. Binding calls can cover weak binding; strength is not graded here.
# Molecular target: Trypsin
# Assay: affinity chromatography on trypsin-agarose beads
row,binding,Binder
1,binds,"QS4, yeast-expressed soluble protein (designed binder) EAAEMHSFCAFKADDGPCKARFERFFFNIFTRQCEQFYYGGCDGNQNRFESLEECKKMCTRD"
2,binds,"ARFK#2, yeast-expressed soluble protein (designed binder) EAAEMHSFCAFKADDGPCKARFERFFFNIFTRQCEEFVYGGCGGNQNRFESLEECKKMCTRD"
3,binds,"ARFK#1, yeast-expressed soluble protein (designed binder) EAAEMHSFCAFKADDGPCKARFERFFFNIFTRQCEQFVYGGCGGNQNRFESLEECKKMCTRD"
